According to publication PMC3400561:
Results are given in words; binding and its absence hold for the method and conditions named. Binding seen in cells or lysates may run through a third protein. Where a sequence is shown, tags or fusion partners need not be part of it.

Sequences of proteins named here, by UniProt entry; tags and fusion partners are left off.
UniProt O15047: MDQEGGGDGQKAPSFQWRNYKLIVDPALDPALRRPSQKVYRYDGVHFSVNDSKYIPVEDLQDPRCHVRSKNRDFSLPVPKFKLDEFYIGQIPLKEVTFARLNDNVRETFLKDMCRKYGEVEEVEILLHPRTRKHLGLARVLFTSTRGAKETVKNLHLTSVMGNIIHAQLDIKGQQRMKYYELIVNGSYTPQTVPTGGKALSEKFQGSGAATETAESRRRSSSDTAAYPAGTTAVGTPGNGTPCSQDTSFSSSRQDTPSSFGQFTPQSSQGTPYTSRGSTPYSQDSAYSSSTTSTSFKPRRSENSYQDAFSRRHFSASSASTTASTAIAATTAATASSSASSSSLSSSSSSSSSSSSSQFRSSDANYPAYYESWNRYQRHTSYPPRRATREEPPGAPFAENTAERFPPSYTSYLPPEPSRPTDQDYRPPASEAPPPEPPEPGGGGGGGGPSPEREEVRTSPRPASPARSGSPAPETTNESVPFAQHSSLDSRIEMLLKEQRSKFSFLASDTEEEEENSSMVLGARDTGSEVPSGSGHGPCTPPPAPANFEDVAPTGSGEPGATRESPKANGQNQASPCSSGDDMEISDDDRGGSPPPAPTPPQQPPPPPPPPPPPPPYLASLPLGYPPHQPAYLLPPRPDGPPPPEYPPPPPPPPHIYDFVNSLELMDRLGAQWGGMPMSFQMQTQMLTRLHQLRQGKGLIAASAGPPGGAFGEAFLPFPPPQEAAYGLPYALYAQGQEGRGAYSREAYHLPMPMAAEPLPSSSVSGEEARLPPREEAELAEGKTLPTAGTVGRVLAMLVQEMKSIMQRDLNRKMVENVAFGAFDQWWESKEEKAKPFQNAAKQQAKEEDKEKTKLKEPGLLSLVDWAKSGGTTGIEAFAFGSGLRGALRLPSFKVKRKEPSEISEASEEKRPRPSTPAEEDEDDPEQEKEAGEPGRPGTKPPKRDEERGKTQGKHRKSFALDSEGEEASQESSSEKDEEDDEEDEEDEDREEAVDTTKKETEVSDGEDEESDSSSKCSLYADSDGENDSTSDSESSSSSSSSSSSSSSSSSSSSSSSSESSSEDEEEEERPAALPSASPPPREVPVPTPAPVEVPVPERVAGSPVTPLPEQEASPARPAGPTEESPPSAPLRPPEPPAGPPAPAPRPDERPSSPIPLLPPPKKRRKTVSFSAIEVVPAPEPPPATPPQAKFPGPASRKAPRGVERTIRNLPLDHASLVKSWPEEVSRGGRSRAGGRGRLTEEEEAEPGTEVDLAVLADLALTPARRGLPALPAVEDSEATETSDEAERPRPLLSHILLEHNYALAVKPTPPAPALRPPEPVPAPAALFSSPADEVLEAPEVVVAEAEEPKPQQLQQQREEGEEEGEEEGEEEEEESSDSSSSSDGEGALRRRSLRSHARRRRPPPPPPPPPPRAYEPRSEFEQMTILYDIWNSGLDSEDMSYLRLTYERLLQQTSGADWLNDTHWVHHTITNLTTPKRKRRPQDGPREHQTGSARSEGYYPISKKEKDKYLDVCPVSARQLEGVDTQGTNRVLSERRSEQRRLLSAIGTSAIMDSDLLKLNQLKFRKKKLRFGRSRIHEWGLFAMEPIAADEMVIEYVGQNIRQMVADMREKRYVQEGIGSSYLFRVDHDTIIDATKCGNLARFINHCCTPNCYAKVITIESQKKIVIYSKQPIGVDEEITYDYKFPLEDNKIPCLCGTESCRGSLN
UniProt Q03164: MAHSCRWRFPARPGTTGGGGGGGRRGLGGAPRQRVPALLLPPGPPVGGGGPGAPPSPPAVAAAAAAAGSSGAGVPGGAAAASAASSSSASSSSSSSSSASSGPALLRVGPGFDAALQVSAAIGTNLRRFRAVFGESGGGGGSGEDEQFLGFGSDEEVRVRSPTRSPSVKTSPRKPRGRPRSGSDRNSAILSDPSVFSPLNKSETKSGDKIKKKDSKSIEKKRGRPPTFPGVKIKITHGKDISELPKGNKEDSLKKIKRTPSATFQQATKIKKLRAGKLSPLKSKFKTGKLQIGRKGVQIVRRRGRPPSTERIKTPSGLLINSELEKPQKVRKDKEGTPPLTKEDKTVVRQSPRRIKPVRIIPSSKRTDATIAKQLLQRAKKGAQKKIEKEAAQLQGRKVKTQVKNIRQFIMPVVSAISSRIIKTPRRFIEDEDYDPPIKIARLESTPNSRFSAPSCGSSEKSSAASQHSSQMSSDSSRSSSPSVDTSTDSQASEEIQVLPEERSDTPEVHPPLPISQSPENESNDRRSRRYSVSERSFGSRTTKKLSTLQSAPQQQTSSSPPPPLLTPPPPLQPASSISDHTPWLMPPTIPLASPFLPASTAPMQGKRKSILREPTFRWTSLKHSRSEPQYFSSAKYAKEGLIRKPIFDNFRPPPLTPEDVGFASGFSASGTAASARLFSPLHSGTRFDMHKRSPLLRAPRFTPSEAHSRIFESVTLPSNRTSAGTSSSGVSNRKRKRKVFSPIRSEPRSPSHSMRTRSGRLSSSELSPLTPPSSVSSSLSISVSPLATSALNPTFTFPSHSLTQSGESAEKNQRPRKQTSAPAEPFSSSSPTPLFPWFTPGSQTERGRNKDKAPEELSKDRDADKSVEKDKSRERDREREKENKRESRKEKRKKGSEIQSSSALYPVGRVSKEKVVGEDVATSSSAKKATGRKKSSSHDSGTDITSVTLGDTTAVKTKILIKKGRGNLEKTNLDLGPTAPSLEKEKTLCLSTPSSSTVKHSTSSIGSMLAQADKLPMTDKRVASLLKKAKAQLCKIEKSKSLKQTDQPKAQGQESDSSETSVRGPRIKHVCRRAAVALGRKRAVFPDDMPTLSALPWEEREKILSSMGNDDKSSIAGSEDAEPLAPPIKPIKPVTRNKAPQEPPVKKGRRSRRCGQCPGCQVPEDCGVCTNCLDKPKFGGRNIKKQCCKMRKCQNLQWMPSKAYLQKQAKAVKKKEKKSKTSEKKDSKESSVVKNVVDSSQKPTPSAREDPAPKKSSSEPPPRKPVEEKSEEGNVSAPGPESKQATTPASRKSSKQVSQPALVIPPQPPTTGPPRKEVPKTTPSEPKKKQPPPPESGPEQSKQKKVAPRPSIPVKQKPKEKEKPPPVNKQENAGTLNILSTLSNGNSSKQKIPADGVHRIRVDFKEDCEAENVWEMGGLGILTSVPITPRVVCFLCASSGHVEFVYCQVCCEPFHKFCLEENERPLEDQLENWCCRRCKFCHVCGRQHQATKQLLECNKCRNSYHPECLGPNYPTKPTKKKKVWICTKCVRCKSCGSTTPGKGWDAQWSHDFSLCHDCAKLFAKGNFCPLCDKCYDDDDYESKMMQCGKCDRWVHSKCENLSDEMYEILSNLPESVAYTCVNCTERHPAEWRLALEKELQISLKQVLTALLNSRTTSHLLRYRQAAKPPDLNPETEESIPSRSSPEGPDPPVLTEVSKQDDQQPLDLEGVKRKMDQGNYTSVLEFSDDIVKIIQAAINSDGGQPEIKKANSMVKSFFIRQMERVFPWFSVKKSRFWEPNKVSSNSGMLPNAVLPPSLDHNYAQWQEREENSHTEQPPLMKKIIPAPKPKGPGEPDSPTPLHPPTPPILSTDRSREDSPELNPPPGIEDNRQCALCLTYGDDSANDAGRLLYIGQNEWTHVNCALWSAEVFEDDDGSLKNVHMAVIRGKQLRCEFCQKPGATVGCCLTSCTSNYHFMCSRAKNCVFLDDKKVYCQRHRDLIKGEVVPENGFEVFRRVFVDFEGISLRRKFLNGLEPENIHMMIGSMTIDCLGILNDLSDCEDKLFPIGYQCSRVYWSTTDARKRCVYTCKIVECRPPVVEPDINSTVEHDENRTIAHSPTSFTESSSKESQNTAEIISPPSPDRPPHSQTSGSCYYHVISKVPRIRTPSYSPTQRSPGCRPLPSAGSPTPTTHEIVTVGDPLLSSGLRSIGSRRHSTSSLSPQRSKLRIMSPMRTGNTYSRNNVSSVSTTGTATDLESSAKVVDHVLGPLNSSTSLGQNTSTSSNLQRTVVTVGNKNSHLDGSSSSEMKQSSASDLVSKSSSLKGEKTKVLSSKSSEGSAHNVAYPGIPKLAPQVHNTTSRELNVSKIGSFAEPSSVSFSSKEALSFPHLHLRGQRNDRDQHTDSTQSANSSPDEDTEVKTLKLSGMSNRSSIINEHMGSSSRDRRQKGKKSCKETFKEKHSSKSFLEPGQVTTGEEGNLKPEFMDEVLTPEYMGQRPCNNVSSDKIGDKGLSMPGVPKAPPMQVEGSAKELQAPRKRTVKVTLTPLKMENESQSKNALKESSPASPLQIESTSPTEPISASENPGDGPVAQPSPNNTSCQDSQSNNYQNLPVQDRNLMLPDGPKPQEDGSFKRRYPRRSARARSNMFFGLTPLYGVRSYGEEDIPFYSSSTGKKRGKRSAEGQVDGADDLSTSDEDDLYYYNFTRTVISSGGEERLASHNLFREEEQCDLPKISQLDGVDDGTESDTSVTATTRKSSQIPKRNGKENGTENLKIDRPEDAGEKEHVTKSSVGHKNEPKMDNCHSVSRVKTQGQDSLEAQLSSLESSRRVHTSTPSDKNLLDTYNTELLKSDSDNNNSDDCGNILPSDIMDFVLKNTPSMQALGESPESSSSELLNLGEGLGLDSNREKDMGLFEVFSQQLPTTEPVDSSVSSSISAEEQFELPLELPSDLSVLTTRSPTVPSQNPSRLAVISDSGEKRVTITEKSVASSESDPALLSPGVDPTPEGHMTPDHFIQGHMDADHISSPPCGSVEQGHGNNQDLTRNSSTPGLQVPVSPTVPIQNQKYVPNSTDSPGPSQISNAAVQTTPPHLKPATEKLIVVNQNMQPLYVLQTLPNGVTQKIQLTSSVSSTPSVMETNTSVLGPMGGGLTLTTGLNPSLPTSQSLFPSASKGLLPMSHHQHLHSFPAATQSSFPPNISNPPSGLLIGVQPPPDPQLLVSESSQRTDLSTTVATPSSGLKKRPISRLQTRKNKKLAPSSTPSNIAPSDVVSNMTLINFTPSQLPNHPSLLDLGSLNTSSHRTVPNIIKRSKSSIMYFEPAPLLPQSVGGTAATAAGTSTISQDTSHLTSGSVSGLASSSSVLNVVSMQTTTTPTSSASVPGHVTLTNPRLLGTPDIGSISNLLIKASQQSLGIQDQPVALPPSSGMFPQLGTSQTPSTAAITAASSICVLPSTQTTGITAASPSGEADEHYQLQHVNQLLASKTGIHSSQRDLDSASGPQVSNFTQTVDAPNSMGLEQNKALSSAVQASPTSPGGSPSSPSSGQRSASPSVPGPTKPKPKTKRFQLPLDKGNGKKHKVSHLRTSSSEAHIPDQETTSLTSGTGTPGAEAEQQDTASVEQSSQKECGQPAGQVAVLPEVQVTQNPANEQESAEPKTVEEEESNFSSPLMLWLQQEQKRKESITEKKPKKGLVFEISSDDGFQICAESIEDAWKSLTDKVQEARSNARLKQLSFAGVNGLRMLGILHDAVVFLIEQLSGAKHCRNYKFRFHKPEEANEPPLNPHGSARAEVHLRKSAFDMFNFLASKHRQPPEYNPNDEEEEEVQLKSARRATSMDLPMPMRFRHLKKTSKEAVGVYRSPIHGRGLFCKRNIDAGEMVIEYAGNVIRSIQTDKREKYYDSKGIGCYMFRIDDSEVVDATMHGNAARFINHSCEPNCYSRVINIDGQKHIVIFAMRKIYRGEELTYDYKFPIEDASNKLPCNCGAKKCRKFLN

Biological target: T1, HA-GRHL3 (UniProt Q8TE85)
T1 sequence: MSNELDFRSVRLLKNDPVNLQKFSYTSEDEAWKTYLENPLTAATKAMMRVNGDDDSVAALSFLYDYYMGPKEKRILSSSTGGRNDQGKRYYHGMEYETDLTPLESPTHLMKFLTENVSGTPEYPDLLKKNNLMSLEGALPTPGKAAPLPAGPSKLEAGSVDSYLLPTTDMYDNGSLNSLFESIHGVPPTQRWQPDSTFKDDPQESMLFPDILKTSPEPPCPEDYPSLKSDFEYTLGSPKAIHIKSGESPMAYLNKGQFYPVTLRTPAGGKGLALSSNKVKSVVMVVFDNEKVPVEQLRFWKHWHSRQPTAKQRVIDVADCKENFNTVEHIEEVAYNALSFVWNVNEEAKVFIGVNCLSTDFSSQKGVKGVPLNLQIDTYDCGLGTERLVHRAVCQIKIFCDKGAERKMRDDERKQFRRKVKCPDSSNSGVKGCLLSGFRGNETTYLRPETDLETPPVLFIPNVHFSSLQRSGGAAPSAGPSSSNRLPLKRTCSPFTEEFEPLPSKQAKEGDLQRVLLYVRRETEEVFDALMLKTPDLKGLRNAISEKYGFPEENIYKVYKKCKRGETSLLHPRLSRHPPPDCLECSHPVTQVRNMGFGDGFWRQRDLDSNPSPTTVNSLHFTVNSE
Experiment: co-IP; extracts of 293T cells 2 days after transfection with HA-GRHL3; 1% NP-40 lysis buffer; 5 ug antibody (MLL2, WDR5 or HA; IgG control) overnight at 4C, protein A Dynabeads, washed in PBS; Western blot

| binding | Substance |
| --- | --- |
| no binding | SETD1A (from UniProt O15047 1-1707) (enzyme) |
| no binding | MLL1 (from UniProt Q03164 1-3969) (enzyme) |
